These results are taken from patent US20110123984A1.

Results are given in words; binding and its absence hold for the method and conditions named. For some assays here: Binding seen in cells or lysates may run through a third protein. Some results given as binding are weak or reduced against the parent protein; the word gives no strength. Sequences can lack the tags named with a protein.

Assay [1] deals with T1, Myc-tagged CALHM1 (human) (UniProt Q8IU99).
T1 sequence: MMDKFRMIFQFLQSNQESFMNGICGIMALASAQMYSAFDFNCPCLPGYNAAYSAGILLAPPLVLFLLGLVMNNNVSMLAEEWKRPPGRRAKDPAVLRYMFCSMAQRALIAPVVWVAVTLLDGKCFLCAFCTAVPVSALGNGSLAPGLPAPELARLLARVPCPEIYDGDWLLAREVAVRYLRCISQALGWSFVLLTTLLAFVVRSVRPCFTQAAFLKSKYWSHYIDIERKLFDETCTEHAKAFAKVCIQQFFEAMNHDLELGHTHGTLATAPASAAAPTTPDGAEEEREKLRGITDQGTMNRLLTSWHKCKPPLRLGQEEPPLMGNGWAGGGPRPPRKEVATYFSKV
The experiment in a line: co-immunoprecipitation with immobilized anti-Myc antibody from lysates of co-transfected HEK293 cells, western blot with anti-V5.

The target of assay [2] is T1, Myc-tagged CALHM1 (human). The experiment in a line: non-reducing SDS-PAGE and anti-Myc western blot of lysates of Myc-CALHM1-transfected HEK293 cells.

B1: V5-tagged CALHM1 (protein, not shown: small tags and cut ends)
chain: MMDKFRMIFQFLQSNQESFMNGICGIMALASAQMYSAFDFNCPCLPGYNAAYSAGILLAPPLVLFLLGLVMNNNVSMLAEEWKRPPGRRAKDPAVLRYMFCSMAQRALIAPVVWVAVTLLDGKCFLCAFCTAVPVSALGNGSLAPGLPAPELARLLARVPCPEIYDGDWLLAREVAVRYLRCISQALGWSFVLLTTLLAFVVRSVRPCFTQAAFLKSKYWSHYIDIERKLFDETCTEHAKAFAKVCIQQFFEAMNHDLELGHTHGTLATAPASAAAPTTPDGAEEEREKLRGITDQGTMNRLLTSWHKCKPPLRLGQEEPPLMGNGWAGGGPRPPRKEVATYFSKV
For B1, the binding result in assay [1] is “binds”.

B2: Myc-tagged CALHM1 (protein, not shown: small tags and cut ends)
chain: MMDKFRMIFQFLQSNQESFMNGICGIMALASAQMYSAFDFNCPCLPGYNAAYSAGILLAPPLVLFLLGLVMNNNVSMLAEEWKRPPGRRAKDPAVLRYMFCSMAQRALIAPVVWVAVTLLDGKCFLCAFCTAVPVSALGNGSLAPGLPAPELARLLARVPCPEIYDGDWLLAREVAVRYLRCISQALGWSFVLLTTLLAFVVRSVRPCFTQAAFLKSKYWSHYIDIERKLFDETCTEHAKAFAKVCIQQFFEAMNHDLELGHTHGTLATAPASAAAPTTPDGAEEEREKLRGITDQGTMNRLLTSWHKCKPPLRLGQEEPPLMGNGWAGGGPRPPRKEVATYFSKV
Turning to B2, the binding entry in assay [2] is “binds”.
